Experimental data as given in article PMC9378861, “Formation and metabolism of 6-(1-acetol)-8-(1-acetol)-rutin in foods and in vivo, and their cytotoxicity” (Frontiers in Nutrition, 2022).

Experiments:
[1] = samples with codes 1, 3 and 5-9; cited from earlier work
[2] = Formation of rutin-MGO adducts under simulated physiological condition (HPLC-DAD); conditions: 0.5 mM rutin + 0.5 mM MGO, 37°C, PBS pH 7.4, reaction time 24 h

Structure (SMILES)	Content of oxidized adduct in commercial food samples, range [1]	Formation level of adduct [2]
CC(=O)C(=O)c1c(O)c(C(O)C(C)=O)c(O)c2c(=O)c(O[C@@H]3O[C@H](CO[C@@H]4O[C@@H](C)[C@H](O)[C@@H](O)[C@H]4O)[C@@H](O)[C@H](O)[C@H]3O)c(-c3ccc(O)c(O)c3)oc12 (some centres unmarked) [6-(1-acetol)-8-(1,2-propanedione)-rutin]	0 to 2.43 mg/kg	21.18 µM
CC(=O)C(=O)c1c(O)c(C(=O)C(C)=O)c2oc(-c3ccc(O)c(O)c3)c(O[C@@H]3O[C@H](CO[C@@H]4O[C@@H](C)[C@H](O)[C@@H](O)[C@H]4O)[C@@H](O)[C@H](O)[C@H]3O)c(=O)c2c1O [6-(1,2-propanedione)-8-(1,2-propanedione)-rutin]	0.29 to 2.79 mg/kg	53.35 µM
CC(=O)C(O)c1c(O)c(C(O)C(C)=O)c2oc(-c3ccc(O)c(O)c3)c(OC3OC(COC4OC(C)C(O)C(O)C4O)C(O)C(O)C3O)c(=O)c2c1O (centres unmarked) [Adduct A, 6-(1-acetol)-8-(1-acetol)-rutin]		20.61 µM
CC(=O)C(O)c1c(O)c(C(O)C(C)=O)c2oc(-c3ccc(O)c(O)c3)c(OC3OC(COC4OC(C)C(O)C(O)C4O)C(O)C(O)C3O)c(=O)c2c1O (centres unmarked) [Adduct B, 6-(1-acetol)-8-(1-acetol)-rutin]		28.67 µM
CC(=O)C(=O)c1c(O)c(C(O)C(C)=O)c2oc(-c3ccc(O)c(O)c3)c(OC3OC(COC4OC(C)C(O)C(O)C4O)C(O)C(O)C3O)c(=O)c2c1O (centres unmarked) [6-(1,2-propanedione)-8-(1-acetol)-rutin]	0.15 to 1.43 mg/kg	20.49 µM
